From paper PMC7693105
These are yes or no findings as the source states them, for the method shown. In cells and extracts the contact can be indirect. Some entries that bind do so weakly or less than the wild type.

Chains of the proteins cited; added tags and fusions are not shown. Lines headed by an entry give the natural chain unless they say otherwise; changes in a name come on top.
UniProt P10275: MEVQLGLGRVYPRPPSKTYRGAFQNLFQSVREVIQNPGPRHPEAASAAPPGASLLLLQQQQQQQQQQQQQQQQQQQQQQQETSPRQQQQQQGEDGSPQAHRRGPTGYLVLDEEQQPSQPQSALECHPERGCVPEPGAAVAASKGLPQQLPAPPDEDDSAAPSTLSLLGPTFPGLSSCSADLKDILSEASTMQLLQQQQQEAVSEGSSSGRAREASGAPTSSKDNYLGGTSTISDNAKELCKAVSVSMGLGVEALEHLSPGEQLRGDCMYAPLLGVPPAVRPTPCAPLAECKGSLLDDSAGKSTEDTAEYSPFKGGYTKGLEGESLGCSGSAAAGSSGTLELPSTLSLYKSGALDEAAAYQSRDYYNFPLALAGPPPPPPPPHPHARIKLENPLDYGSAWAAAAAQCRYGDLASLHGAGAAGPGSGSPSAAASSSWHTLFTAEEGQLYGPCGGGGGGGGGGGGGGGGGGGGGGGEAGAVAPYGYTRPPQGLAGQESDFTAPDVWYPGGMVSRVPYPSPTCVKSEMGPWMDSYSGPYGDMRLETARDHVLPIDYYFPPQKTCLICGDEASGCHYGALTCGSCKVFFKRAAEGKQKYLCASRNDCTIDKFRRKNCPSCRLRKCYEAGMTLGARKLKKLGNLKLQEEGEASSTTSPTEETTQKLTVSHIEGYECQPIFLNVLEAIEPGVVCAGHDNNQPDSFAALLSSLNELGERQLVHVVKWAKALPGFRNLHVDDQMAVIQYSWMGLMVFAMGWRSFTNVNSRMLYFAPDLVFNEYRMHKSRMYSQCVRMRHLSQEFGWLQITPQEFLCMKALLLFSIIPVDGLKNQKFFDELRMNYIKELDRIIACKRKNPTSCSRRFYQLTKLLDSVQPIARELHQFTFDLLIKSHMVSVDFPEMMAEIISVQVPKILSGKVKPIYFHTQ
UniProt O43791: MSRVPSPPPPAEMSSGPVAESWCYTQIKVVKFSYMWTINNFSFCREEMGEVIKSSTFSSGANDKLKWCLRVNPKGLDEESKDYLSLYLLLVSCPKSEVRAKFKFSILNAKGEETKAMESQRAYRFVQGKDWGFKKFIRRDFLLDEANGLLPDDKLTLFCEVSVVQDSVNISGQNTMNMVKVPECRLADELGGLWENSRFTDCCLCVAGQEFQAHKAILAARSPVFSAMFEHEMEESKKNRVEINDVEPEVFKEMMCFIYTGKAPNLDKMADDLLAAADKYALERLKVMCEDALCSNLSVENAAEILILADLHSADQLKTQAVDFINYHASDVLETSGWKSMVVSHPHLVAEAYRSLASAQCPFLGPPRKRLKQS

Legend:
[1] = target: androgen receptor (AR) on beads (UniProt P10275); experiment: pull-down; AR on beads (AR immune complex isolated from cells) incubated with 6x-His-SPOP (WT and 3A), binding analyzed; only the binder purified
[2] = target: HA-tagged wild-type SPOP expressed in C4-2 cells (UniProt O43791); experiment: co-IP; SPOP immunoprecipitated from C4-2, SPOP-C4-2 and 3A-SPOP-C4-2 cells, AR detected by immunoblotting; IgG IP as control
[3] = target: HA-tagged 3A-SPOP (S33A, T56A, S105A) expressed in C4-2 cells (UniProt O43791); experiment: as above
[4] = target: Speckle-type POZ (pox virus and zinc finger) protein (SPOP), endogenous (human (endogenous in C4-2)) (UniProt O43791); experiment: as above
[5] = target: T1, Aurora kinase A (AURKA) (human (endogenous in C4-2)) (UniProt O14965); experiment: co-IP; endogenous SPOP or AURKA immunoprecipitated from C4-2 cells, partner detected in the immune complex; IgG IP as negative control
T1 sequence: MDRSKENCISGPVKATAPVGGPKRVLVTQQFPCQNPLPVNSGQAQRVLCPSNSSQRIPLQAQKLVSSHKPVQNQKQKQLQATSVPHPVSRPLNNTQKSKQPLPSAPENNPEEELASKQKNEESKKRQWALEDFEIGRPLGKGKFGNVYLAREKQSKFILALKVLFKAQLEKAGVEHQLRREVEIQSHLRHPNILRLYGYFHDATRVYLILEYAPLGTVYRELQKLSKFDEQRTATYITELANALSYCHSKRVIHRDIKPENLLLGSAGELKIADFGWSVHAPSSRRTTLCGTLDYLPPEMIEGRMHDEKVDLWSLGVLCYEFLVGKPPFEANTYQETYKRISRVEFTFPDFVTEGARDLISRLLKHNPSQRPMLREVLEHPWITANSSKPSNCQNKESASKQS

[6] = target: Speckle-type POZ (pox virus and zinc finger) protein (SPOP), endogenous (human (endogenous in C4-2)) (UniProt O43791); experiment: as above

In the case of “6x-His-tagged wild-type SPOP (from UniProt O43791 1-374)”, the binding [1] is reported as “binds”.

“6x-His-tagged 3A-SPOP (S33A, T56A, S105A triple mutant) (from UniProt O43791 1-374)” was tested, and the binding [1] was “binds”.

In the case of “androgen receptor (AR), endogenous in C4-2 cells (from UniProt P10275 1-920)”, the binding [2] is reported as “binds”, the binding [3] is reported as “binds” and the binding [4] is reported as “binds”.

“Speckle-type POZ (pox virus and zinc finger) protein (SPOP), endogenous (from UniProt O43791 1-374)” was tested, and the binding [5] was “binds”.

B1: Aurora kinase A (AURKA) (enzyme, UniProt O14965 1-403)
chain: T1 sequence
In the case of B1, the binding [6] is reported as “binds”.
